The results in this text go back to US20230047788A1, “COMPOSITIONS COMPRISING 5-CHOLESTEN-3, 25-DIOL, 3-SULFATE (25HC3S) OR PHARMACEUTICALLY ACCEPTABLE SALT THEREOF AND AT LEAST ONE CYCLIC OLIGOSACCHARIDE” (Virginia Commonwealth University, priority 2016, published 2023).

A short description of this data set: Stability testing for 25HC3S sodium salt for injection, 30 mg/mL after constitution. Format: physicochemical. The method, then:
Sterile water for injection, USP (6.14 kg) was added into a 10L stainless steel vessel. […] HPbCD, NF (1851.85 g) was added in small portions over 15 minutes with slow stirring into the beaker. The stirring was increased to 250-350 rpm for an additional minimum 30 minutes to form a clear solution. The solution was filtered through a 0.22 micron filter. Filtered vehicle (7 mL) was filled into 10 mL glass vials, which were sealed with 20 mm stoppers, and crimp sealed. The vehicle vials were sterilized with gamma irradiation at approximately 28-32 kGy.
25HC3S sodium salt was micronized by passing through a Fluid Energy Model 00 Jet-O-Mizer Jet Mill. Micronized drug substance (186 mg) was added into a 10 mL glass vial, sealed with 20 mm stoppers, and crimp sealed. The 25HC3S powder vials were sterilized with gamma irradiation at approximately 28-32 kGy
Sterile vehicle (6.0 mL) comprised of 250 mg/mL HPbCD and 10 mM phosphate buffer was added to a vial of 25HC3S micronized powder. The mixture was shaken for 15 minutes to prepare a solution resulting in a 25HC3S sodium salt concentration of 30 mg/mL (allowing for 3% dilution upon the dissolution of drug).
Stability data for 6 months at 2-8° C. to 40° C./75% RH for 25HC3S for injection, 30 mg/mL after constitution, are listed in Table 5. This lot of 25HC3S powder, and the vehicle used to constitute it, were gamma sterilized at approximately 28-32 kGy. The data supports a 12 month retest date when stored at 2-8° C.

Further values from the same series stand in other lists.

Regarding `C[C@H](CCCC(C)(C)O)[C@H]1CC[C@H]2[C@@H]3CC=C4C[C@@H](OS(=O)(=O)[O-])CC[C@]4(C)[C@H]3CC[C@]12C.[Na+]` [25HC3S, 5-cholesten-3, 25-diol, 3-sulfate], the pH (25°C/60% RH, 3 months) turned out to be 4.83; the pH (25°C/60% RH, 6 months) is recorded as 4.73; the pH (40°C/75% RH, 1 month) came out at 4.65; the pH (40°C/75% RH, 3 months) is reported as 4.27; the pH (40°C/75% RH, 6 months) was found to be 4.15.
